Measured data: PubChem BioAssay AID1224830 (NIAID, 2016)

Assay: 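Host factors that control LPS-induced TNF expression in human macrophages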 (primary screen)
Cells: human THP-1 monocytic leukaemia cells, TNF dual-luciferase reporter clone, PMA-differentiated to macrophage-like cells
Reagent: siRNA pool against human genes, 50 nM
Time to read-out: LPS for 4 h, given about 3 days after siRNA transfection
Treatment: bacterial LPS (TLR4 ligand), 10 ng/ml
Read-out: 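TNF firefly reporter luminescence divided by renilla, normalised to the plate median, then turned into a robust z-score for each replicate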
Direction: TNF reporter robust z-score: higher = stronger TNF reporter response to LPS
Rule for the call: 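a well is active when its z-score exceeds 2.8 or falls below -1.5; control wells carry no call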
The deposit covers about 18,000 reagents; below is a random part of them. About 2,900 of all reagents (16%) were called active. 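Calls are made per well; low scores hint the gene aids the LPS response, high scores that it dampens it.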 Unmarked entries are inactive. Repeated entries: four replicate wells of each siRNA pool. Reagent sequences are not shown.

TNF reporter robust z-score	Target gene
-0.13	OR9Q1
1.25	OR9Q1
-0.54	OR9Q1
0.97	OR9Q1
0.24	ABCD2
1.96	ABCD2
-0.19	ABCD2
-1.56 (active)	ABCD2
0.91	MYH3
1.02	MYH3
1.1	MYH3
1.45	MYH3
0.7	DLST
0.5	DLST
0.3	DLST
-0.7	DLST
-0.06	DDB1
0.04	DDB1
0.31	DDB1
0.26	DDB1
-1.08	NUP43
-1.37	NUP43
-1.28	NUP43
-1.38	NUP43
-0.32	RRP12
0.74	RRP12
-0.6	RRP12
-0.01	RRP12
-0.74	LTB4R2
-0.81	LTB4R2
-0.64	LTB4R2
0.42	LTB4R2
0.29	BACC1
1.29	BACC1
0.01	BACC1
1.69	BACC1
-0.03	NEK7
0.97	NEK7
-0.29	NEK7
0.41	NEK7
0.25	STX10
-0.02	STX10
-0.26	STX10
-0.28	STX10
-0.14	CREBL2
0.13	CREBL2
-0.49	CREBL2
0.92	CREBL2
-0.91	TTYH2
0.37	TTYH2
-0.47	TTYH2
-0.01	TTYH2
-2.14 (active)	HNRNPA2B1
-1.74 (active)	HNRNPA2B1
-2.3 (active)	HNRNPA2B1
-1.88 (active)	HNRNPA2B1
0.49	HSPE1
-1.18	HSPE1
-1.69 (active)	HSPE1
-1.06	HSPE1
-0.15	CXCR2
0.09	CXCR2
-0.33	CXCR2
-0.12	CXCR2
-0.21	BORCS6
0.24	BORCS6
-0.3	BORCS6
0.92	BORCS6
0.48	ELAC2
0.87	ELAC2
-0.12	ELAC2
-0.11	ELAC2
-0.1	TRMT2B
0.09	TRMT2B
0	TRMT2B
0.61	TRMT2B
-0.17	PLEKHG4B
-1.29	PLEKHG4B
0.54	PLEKHG4B
0.24	PLEKHG4B
0.6	OLA1
0.66	OLA1
0.46	OLA1
1.88	OLA1
2.76	PRKCD
2.41	PRKCD
-0.49	PRKCD
0.22	PRKCD
-0.73	NAT9
-0.5	NAT9
-0.71	NAT9
0.17	NAT9
-0.1	CSPG4
0.17	CSPG4
0.14	CSPG4
0.23	CSPG4
-1.02	ARMCX2
-0.61	ARMCX2
0.56	ARMCX2
-0.33	ARMCX2
-0.41	ZDHHC7
-0.08	ZDHHC7
-0.03	ZDHHC7
0.09	ZDHHC7
-0.39	SFTPA2B (retired record)
-0.99	SFTPA2B (retired record)
-0.62	SFTPA2B (retired record)
1.22	SFTPA2B (retired record)
-0.93	SLC16A5
-0.94	SLC16A5
-0.45	SLC16A5
0.67	SLC16A5

Reprinted from the entries so far, 10 entries:
TNF reporter robust z-score	Target gene
-0.61	ARMCX2
0.56	ARMCX2
-0.33	ARMCX2
-0.41	ZDHHC7
-0.08	ZDHHC7
-0.03	ZDHHC7
0.09	ZDHHC7
-0.39	SFTPA2B (retired record)
-0.99	SFTPA2B (retired record)
-0.62	SFTPA2B (retired record)
